Article PMC7555382
These are yes or no findings as the source states them, for the method shown. Binding seen in cells or lysates may run through a third protein. Some entries that bind do so weakly or less than the wild type.

By UniProt entry, the sequences of proteins in these tests, tags left out. Residues count along the entry.
UniProt P30532, residues 23-468: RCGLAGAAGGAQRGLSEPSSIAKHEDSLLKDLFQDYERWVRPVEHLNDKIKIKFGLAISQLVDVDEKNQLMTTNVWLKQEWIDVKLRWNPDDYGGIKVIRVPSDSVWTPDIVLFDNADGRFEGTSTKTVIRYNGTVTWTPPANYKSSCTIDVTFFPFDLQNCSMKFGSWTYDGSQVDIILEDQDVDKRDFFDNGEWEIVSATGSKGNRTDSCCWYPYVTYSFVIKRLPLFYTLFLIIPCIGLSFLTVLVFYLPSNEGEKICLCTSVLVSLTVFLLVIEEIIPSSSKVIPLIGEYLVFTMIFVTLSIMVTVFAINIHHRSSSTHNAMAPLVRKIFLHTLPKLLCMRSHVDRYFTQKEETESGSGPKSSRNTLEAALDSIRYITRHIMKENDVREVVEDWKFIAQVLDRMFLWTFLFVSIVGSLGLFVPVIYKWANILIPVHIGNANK

How the values were obtained:
[1] = molecular target: endogenous EGFR of A549 cells (EGFR wild-type) (human (endogenous in A549)) (UniProt P00533); experiment: co-IP; lysates of untransfected A549 and H1975 cells immunoprecipitated with anti-α5 or anti-EGFR antibodies, western blot; A549 also after 8 h serum starvation and 1 h EGF or nicotine, which enhanced the association
[2] = molecular target: HA-tagged nAChR α5 (nicotinic acetylcholine receptor subunit α5) (UniProt P30532); experiment: co-IP; HEK293T, A549 or H1975 cells transfected with His-EGFR WT and HA-α5; lysates immunoprecipitated with anti-His or anti-HA (in Figure 3D anti-EGFR or anti-α5) antibodies, western blot; also after 8 h serum starvation and 1 h EGF or nicotine, which enhanced the association
[3] = molecular target: His-tagged wild-type EGFR (epidermal growth factor receptor) (UniProt P00533); experiment: as above

Substance: endogenous α5-nAChR (nicotinic acetylcholine receptor subunit α5) (from UniProt P30532 23-468)
- binding [1]: binds

Substance: His-tagged wild-type EGFR (epidermal growth factor receptor) (from UniProt P00533 25-1210)
- binding [2]: binds

Substance: HA-tagged nAChR α5 (nicotinic acetylcholine receptor subunit α5) (from UniProt P30532 23-468)
- binding [3]: binds
